Here are results for 1 substance from article PMC7761207, “Molecular Characterization of the Burkholderia cenocepacia dcw Operon and FtsZ Interactors as New Targets for Novel Antimicrobial Design” (Antibiotics, 2020).

The chains behind the UniProt entries cited, without tags or fusion partners.
UniProt P0A6F5: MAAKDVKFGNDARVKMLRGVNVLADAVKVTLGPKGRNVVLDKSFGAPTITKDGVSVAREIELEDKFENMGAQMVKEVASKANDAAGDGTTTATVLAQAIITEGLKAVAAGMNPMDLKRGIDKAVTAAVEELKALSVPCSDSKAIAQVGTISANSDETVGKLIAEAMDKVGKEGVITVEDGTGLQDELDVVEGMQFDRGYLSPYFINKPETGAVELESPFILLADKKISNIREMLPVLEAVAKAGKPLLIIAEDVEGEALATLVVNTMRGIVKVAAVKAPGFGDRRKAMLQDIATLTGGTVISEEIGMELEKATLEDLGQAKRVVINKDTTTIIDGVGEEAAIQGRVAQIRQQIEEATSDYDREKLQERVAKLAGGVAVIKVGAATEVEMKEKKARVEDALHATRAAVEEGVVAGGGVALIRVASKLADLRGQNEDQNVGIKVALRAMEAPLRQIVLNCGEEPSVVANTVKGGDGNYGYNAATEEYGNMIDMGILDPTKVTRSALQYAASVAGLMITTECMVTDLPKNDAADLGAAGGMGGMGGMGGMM

This assay deals with T1, MBP-SulA (pBCA006, the putative B. cenocepacia SulA) (Burkholderia cenocepacia J2315) (UniProt B4EQP0).
T1 sequence: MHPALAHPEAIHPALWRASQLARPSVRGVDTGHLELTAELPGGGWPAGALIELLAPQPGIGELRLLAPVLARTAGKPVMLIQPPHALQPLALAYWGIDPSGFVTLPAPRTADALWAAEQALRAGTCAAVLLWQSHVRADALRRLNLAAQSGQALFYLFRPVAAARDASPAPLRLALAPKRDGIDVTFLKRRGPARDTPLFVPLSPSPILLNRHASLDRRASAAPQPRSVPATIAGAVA
Kind of assay: pull-down; cell extract of E. coli TOP10 with 5 mM ATP loaded on MBPTrap HP, eluted with 10 mM maltose in buffer C (50 mM Tris-HCl pH 7, 5 mM MgCl2, glycerol 5%).

Results are given in words; binding and its absence hold for the method and conditions named. In cells and extracts the contact can be indirect. Some binding calls cover weakened binding; strength is not graded here. Sequences can lack the tags named with a protein.

As for “E. coli chaperone GroEL (from UniProt P0A6F5 1-548)”, the binding result is “binds”.
